This series in a line: Final body weight in male rats after once daily intravenous infusion for four weeks. It is filed as in vivo, rat. The following applies: 15-min iv infusion once daily for four weeks, N=10. As to the method:
Male rats were divided into a control group and three test groups with 20 animals per group. Animals were administered the MetAP-2 inhibitor Compound I, represented by the formula: Compound I was prepared in a 5% mannitol solution was administered once daily for four weeks by a fifteen-minute intravenous infusion according to Table I. [table] Ten animals from each group were euthanized at the end of the four weeks. The remaining ten animals were allowed to recover for 10 additional weeks and were then euthanized.

Marks after values point to notes of the source that are not given here.

Turning to `CO[C@@H]1[C@H](OC(=O)/C=C/c2ccc(OCCN(C)C)cc2)CCC2(CO2)[C@H]1[C@@]1(C)O[C@@H]1CC=C(C)C` (stereo in doubt) [Compound I], the “Final Body Weight (g) Mean” value by setting is: (0.04 mg/kg/day) 437** g; (0.2 mg/kg/day) 411** g; (1.0 mg/kg/day) 393** g.

The values above are taken from US8815309B2, “Methods of treating a subject with benign prostate hyperplasia” (Zafgen, Inc., priority 2010, dated 2014).
